From article PMC2891856

Protein sequences, listed by entry. Tags and fused reporters are not part of them.
UniProt Q13547: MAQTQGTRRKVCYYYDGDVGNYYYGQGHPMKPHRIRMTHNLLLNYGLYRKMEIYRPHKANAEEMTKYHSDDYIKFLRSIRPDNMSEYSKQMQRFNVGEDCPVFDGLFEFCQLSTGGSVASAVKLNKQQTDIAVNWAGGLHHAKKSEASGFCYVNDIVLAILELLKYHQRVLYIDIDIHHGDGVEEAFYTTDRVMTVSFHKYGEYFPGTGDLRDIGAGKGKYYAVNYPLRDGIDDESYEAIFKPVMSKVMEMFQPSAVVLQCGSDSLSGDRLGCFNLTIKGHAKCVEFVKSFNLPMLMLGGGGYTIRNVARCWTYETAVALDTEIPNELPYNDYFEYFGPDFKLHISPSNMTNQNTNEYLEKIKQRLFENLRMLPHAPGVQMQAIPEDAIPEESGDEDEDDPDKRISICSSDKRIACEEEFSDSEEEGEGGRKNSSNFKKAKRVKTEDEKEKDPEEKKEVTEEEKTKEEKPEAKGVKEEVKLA
UniProt Q12873: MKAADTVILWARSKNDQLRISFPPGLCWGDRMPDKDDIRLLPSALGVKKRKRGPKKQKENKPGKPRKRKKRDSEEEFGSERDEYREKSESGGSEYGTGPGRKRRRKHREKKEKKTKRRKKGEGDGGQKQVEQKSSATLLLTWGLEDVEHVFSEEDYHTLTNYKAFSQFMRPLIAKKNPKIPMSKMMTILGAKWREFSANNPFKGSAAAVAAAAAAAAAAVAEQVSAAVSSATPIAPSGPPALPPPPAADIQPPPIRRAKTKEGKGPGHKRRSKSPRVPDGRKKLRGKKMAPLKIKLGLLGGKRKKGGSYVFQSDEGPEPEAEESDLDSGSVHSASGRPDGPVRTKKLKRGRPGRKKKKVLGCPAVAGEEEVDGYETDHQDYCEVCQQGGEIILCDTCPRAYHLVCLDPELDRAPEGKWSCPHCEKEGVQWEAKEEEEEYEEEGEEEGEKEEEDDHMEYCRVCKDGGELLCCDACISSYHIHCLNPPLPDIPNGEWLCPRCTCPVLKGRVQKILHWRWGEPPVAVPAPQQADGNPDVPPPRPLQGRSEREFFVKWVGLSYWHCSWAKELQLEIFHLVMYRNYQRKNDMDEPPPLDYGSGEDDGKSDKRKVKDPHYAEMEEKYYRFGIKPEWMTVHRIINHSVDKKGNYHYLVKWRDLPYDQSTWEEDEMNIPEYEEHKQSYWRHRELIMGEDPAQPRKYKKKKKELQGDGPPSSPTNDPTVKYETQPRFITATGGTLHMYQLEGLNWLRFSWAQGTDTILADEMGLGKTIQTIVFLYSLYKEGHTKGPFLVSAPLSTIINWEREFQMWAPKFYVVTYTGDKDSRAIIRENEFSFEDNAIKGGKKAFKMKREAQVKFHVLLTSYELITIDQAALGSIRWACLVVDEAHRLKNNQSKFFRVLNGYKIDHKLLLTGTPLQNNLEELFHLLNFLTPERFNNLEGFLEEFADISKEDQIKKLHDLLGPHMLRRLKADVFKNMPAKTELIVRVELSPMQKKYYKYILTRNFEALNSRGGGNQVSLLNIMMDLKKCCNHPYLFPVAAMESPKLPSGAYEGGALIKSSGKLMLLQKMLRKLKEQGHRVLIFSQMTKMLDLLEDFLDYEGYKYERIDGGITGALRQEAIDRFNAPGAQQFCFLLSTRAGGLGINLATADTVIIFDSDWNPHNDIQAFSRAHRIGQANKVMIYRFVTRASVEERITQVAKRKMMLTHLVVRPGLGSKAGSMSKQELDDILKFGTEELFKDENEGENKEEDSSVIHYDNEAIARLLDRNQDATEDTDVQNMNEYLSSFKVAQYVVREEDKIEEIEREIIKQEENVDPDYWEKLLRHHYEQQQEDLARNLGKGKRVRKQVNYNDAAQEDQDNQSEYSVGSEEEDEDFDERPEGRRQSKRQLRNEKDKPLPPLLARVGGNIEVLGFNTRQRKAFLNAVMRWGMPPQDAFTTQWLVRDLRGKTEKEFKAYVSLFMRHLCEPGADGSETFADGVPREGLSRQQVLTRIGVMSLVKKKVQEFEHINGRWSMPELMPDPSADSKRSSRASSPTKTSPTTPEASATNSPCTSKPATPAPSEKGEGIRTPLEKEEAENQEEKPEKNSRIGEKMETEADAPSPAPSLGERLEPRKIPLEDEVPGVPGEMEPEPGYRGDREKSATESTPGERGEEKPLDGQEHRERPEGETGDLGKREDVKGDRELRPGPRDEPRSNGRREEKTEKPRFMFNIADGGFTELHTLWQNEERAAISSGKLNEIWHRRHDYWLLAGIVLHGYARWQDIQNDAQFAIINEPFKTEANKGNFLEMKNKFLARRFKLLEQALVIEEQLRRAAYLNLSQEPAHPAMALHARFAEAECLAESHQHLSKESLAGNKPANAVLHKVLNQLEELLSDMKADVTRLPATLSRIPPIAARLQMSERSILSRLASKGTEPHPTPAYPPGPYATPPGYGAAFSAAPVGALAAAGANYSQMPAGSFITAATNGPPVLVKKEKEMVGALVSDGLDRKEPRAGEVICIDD
UniProt P13202: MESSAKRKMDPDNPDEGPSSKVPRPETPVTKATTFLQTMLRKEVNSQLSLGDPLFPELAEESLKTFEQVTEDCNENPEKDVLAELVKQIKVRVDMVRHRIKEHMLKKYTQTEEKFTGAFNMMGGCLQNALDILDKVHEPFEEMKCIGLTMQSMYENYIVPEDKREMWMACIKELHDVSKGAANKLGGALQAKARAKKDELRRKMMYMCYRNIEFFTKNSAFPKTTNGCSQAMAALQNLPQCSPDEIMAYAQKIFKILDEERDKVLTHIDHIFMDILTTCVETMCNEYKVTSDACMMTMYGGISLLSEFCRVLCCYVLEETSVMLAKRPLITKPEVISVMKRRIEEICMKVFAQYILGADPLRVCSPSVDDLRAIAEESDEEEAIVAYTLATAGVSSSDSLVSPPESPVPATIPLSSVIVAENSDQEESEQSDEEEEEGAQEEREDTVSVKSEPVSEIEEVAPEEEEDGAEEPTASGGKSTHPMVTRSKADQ
UniProt P19893: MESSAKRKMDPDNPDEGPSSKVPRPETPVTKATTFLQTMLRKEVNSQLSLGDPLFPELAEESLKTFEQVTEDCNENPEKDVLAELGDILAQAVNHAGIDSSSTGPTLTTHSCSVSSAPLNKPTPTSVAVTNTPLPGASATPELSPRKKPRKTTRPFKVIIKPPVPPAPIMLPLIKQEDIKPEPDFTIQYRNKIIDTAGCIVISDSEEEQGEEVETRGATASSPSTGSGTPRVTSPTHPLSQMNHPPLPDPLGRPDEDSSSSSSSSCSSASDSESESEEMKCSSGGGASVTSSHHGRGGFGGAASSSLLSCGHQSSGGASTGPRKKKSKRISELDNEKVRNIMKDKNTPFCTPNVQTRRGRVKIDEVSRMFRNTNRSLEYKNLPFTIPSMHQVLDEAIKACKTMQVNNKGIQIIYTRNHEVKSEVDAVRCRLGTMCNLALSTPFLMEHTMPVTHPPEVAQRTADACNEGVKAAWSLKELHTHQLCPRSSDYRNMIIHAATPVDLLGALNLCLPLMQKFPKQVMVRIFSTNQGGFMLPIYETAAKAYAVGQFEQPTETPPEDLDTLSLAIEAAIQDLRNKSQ
UniProt P16788: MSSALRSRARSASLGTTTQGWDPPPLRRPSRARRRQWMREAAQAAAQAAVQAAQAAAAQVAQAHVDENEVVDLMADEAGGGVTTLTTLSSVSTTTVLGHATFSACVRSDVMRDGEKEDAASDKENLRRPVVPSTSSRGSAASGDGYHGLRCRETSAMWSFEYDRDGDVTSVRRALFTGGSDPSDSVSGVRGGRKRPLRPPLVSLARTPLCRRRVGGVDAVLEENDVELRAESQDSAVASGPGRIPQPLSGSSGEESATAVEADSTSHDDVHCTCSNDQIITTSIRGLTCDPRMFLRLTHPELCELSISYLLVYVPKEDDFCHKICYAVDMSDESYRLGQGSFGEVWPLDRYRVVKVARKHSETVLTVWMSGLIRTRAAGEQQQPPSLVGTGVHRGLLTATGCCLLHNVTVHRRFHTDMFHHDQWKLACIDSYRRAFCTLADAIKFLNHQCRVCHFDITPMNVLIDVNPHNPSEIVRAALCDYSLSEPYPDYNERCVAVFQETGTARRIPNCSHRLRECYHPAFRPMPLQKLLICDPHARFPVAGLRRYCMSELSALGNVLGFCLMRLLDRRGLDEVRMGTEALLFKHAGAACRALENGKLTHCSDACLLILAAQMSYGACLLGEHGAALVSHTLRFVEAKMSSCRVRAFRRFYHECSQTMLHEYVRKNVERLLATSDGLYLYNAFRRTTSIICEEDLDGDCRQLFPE

Tests used:
[1] = target: HDAC1-enhanced green fluorescent protein fusion protein (UniProt Q13547); assay: affinity purification with mass spectrometry
[2] = target: HDAC1-enhanced green fluorescent protein fusion protein (UniProt Q13547); assay: affinity purification with mass spectrometry; remark: listed apart in the source

Molecule | binding [2] | binding [1]
CHD3 (from UniProt Q12873 1-2000) |  | binds
HCMV IE1 (from UniProt P13202 1-491) |  | no binding
HCMV IE2 (from UniProt P19893 1-580) |  | no binding
HCMV pUL97 (from UniProt P16788 1-707) (enzyme) |  | binds

Continued, in another order:

binding [2] | Molecule | binding [1]
binds | SIN3B (protein, UniProt O75182 1-1162) MAHAGGGSGGSGAGGPAGRGLSGARWGRSGSAGHEKLPVHVEDALTYLDQVKIRFGSDPATYNGFLEIMKEFKSQSIDTPGVIRRVSQLFHEHPDLIVGFNAFLPLGYRIDIPKNGKLNIQSPLTSQENSHNHGDGAEDFKQQVPYKEDKPQVPLESDSVEFNNAISYVNKIKTRFLDHPEIYRSFLEILHTYQKEQLNTRGRPFRGMSEEEVFTEVANLFRGQEDLLSEFGQFLPEAKRSLFTGNGPCEMHSVQKNEHDKTPEHSRKRSRPSLLRPVSAPAKKKMKLRGTKDLSIAAVGKYGTLQEFSFFDKVRRVLKSQEVYENFLRCIALFNQELVSGSELLQLVSPFLGKFPELFAQFKSFLGVKELSFAPPMSDRSGDGISREIDYASCKRIGSSYRALPKTYQQPKCSGRTAICKELDHWTLLQGSWTDDYCMSKFKNTCWIPGYSAGVLNDTWVSFPSWSEDSTFVSSKKTPYEEQLHRCEDERFELDVVLETNLATIRVLESVQKKLSRMAPEDQEKFRLDDSLGGTSEVIQRRAIYRIYGDKAPEIIESLKKNPVTAVPVVLKRLKAKEEEWREAQQGFNKIWREQYEKAYLKSLDHQAVNFKQNDTKALRSKSLLNEIESVYDEHQEQHSEGRSAPSSEPHLIFVYEDRQILEDAAALISYYVKRQPAIQKEDQGTIHQLLHQFVPSLFFSQQLDLGASEESADEDRDSPQGQTTDPSERKKPAPGPHSSPPEEKGAFGDAPATEQPPLPPPAPHKPLDDVYSLFFANNNWYFFLRLHQTLCSRLLKIYRQAQKQLLEYRTEKEREKLLCEGRREKGSDPAMELRLKQPSEVELEEYYPAFLDMVRSLLEGSIDPTQYEDTLREMFTIHAYVGFTMDKLVQNIARQLHHLVSDDVCLKVVELYLNEKKRGAAGGNLSSRCVRAARETSYQWKAERCMADENCFKVMFLQRKGQVIMTIELLDTEEAQTEDPVEVQHLARYVEQYVGTEGASSSPTEGFLLKPVFLQRNLKKFRRRWQSEQARALRGEARSSWKRLVGVESACDVDCRFKLSTHKMVFIVNSEDYMYRRGTLCRAKQVQPLVLLRHHQHFEEWHSRWLEDNVTVEAASLVQDWLMGEEDEDMVPCKTLCETVHVHGLPVTRYRVQYSRRPASP | 
binds | SDS3 (protein, UniProt Q9H7L9 1-328) MSAAGLLAPAPAQAGAPPAPEYYPEEDEELESAEDDERSCRGRESDEDTEDASETDLAKHDEEDYVEMKEQMYQDKLASLKRQLQQLQEGTLQEYQKRMKKLDQQYKERIRNAELFLQLETEQVERNYIKEKKAAVKEFEDKKVELKENLIAELEEKKKMIENEKLTMELTGDSMEVKPIMTRKLRRRPNDPVPIPDKRRKPAPAQLNYLLTDEQIMEDLRTLNKLKSPKRPASPSSPEHLPATPAESPAQRFEARIEDGKLYYDKRWYHKSQAIYLESKDNQKLSCVISSVGANEIWVRKTSDSTKMRIYLGQLQRGLFVIRRRSAA | 

Read-outs that look alike come from different tables or passages of the source. These are yes or no findings as the source states them, for the method shown. In cells and extracts the contact can be indirect. These calls come from enrichment with a bait or labelling near it, and not all partners need be listed. For part of these data: A no says only that the protein was not detected with the bait.
